Our source for the binding values is PMC10396025.

Sequences of proteins named here, by UniProt entry; tags and fusion partners are left off. A change or cut given only in a name is not applied to a line headed by its entry.
UniProt P97496: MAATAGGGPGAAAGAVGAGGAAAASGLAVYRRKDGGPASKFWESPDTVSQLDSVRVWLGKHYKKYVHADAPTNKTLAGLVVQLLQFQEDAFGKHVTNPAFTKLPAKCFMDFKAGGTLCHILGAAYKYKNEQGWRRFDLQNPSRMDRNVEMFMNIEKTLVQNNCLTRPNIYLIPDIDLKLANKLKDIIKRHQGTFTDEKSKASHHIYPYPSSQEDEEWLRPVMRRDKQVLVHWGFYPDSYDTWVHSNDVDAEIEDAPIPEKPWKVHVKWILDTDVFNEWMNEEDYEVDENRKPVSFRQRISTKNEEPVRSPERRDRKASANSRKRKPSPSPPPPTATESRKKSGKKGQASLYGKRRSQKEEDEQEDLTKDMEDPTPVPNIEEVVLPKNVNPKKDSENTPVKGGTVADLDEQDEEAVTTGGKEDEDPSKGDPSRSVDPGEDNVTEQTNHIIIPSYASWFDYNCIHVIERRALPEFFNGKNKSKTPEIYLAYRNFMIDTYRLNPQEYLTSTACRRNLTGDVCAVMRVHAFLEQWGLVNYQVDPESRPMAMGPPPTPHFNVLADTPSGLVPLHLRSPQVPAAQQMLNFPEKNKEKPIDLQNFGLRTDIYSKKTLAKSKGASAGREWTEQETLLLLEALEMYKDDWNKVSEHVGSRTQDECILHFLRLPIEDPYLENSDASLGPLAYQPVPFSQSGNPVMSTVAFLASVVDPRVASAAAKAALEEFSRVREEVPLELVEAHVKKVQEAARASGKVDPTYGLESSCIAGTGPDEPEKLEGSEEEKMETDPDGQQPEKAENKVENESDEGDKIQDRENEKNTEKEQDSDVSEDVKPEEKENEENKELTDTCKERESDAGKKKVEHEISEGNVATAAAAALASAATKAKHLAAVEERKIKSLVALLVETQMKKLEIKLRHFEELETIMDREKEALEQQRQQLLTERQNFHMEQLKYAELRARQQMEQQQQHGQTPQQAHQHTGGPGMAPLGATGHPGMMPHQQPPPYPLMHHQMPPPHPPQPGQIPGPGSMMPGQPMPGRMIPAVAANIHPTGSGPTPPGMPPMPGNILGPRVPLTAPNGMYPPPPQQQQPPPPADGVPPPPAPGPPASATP
UniProt P42227: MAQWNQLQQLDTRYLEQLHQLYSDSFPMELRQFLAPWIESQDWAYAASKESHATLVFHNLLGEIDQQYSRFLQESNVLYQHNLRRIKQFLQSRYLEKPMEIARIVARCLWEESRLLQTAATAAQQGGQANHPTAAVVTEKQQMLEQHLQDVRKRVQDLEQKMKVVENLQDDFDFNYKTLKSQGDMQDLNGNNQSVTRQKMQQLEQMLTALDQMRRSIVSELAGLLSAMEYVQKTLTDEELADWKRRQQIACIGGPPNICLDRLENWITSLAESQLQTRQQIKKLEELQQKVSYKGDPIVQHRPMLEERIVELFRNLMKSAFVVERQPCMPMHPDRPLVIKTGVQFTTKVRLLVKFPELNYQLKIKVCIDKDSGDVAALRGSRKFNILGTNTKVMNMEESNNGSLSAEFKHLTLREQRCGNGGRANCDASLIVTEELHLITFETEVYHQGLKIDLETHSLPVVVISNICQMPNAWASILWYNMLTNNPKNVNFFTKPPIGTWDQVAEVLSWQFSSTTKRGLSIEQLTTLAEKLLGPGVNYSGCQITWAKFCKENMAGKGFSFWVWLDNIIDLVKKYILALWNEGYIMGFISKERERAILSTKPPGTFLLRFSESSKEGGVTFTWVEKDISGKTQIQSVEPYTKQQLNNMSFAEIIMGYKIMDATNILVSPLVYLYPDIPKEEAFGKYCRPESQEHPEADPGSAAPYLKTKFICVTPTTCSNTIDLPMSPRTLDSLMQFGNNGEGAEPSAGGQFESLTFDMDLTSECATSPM

The target in assay [1] is Brg1/Brm-associated factor 155 (Baf155)-His (UniProt P97496). Put plainly: co-IP; C2C12 cells co-transfected with His-tagged Baf155 constructs and STAT3 constructs; lysates (Pierce Co-IP lysis buffer, sonication) precipitated with Ni-NTA agarose overnight at 4°C; washed 6 times with 20 mM Tris, 150 mM NaCl, 20 mM imidazole pH 8.0; western blot.
The target of assay [2] is Baf155 without coiled-coil domain (Baf155^ΔCCD)-His (UniProt P97496). Described as above.

No constants are given. Whether binding was seen depends on the method and setting. Binding seen in cells or lysates may run through a third protein. For some assays here: Binding can be weak; no strength is given.

For “STAT3 without coiled-coil domain (STAT3^ΔCCD) (from UniProt P42227)”, the binding result in assay [1] is listed as “no binding”. On to “signal transducer and activator of transcription 3 (STAT3)-Flag (from UniProt P42227 1-770)”, for which the binding result in assay [2] is “binds”.
